Experimental findings from patent publication US20100203046A1 are described below.

Protein sequences, listed by entry. Tags and fused reporters are not part of them. Residues count along the entry.
UniProt P06729, residues 25-351: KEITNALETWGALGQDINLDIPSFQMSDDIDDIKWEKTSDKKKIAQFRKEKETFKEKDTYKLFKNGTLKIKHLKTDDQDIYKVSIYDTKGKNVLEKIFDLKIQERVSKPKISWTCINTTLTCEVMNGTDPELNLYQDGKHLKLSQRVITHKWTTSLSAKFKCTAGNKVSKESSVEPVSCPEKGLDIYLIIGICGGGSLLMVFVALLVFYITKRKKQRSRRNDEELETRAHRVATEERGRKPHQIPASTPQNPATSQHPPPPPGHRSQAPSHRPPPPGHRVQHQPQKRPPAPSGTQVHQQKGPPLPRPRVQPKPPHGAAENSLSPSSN

Results are given in words; binding and its absence hold for the method and conditions named. Some results given as binding are weak or reduced against the parent protein; the word gives no strength.

For the experiment, the target named is human CD2 (human) (UniProt P06729). Kind of experiment: hybridoma supernatants screened on CD2-positive Jurkat cells.

B1: CB6, human CD2-specific murine monoclonal antibody (IgG1, kappa) (antibody, V domains shown)
VH: QVQLQQPGAELVRPGASVKLSCKASGYTFTSYWMNWVKQRPEQGLEWIGRIDPHDSETHYRQKFKDMAILTVDKSSRTAYMQLSSLTSEDSAVYYCARGTMLDGMDYWGQGTSVTVSSAS
VL: QIVLTQSPAIMSASPGEKVTMTCRASSSVSHMHWYQQKSGTSPKRWIYDTSKLASGVPARFSGSGSGTSYSLTISSVEAEDAATYYCQQWSSNPLTFGAGTKLELK
Turning to B1, the binding entry was “binds”.
